Results of single-concentration screens

Amino acid sequences for entries named in this document (tags omitted). Residues count along the entry.
UniProt Q8IDJ8, 1-583: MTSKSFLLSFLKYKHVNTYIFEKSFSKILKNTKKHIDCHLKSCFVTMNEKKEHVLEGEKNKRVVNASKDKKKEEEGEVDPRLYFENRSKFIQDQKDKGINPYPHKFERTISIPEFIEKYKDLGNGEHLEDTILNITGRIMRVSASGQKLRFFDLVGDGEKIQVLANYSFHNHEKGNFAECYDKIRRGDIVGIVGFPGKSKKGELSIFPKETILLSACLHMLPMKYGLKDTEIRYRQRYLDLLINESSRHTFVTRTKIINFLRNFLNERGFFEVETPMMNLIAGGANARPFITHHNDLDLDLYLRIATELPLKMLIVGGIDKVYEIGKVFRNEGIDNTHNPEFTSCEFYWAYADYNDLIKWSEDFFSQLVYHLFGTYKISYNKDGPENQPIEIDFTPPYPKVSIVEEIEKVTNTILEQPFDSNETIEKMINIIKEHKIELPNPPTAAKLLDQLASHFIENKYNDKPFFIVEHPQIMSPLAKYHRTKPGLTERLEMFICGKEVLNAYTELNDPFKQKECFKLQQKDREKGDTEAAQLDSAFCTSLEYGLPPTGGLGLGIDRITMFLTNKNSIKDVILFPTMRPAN
UniProt P9WFT3, whole entry: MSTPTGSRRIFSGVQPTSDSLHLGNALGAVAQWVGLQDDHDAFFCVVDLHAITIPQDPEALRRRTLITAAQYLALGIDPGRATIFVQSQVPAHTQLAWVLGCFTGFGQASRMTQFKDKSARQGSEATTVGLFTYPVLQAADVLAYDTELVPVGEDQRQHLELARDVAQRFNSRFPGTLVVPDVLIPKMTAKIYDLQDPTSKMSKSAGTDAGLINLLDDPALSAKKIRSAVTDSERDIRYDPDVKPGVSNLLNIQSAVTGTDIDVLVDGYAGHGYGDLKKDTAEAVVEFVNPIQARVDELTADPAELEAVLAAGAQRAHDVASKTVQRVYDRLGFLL

Measurements from “University of Dundee, Small-Polar-MMV Screening Library” (2021), ChEMBL document CHEMBL3988442.

The filed quantity is “Percent Effect” (%). The record does not define 0% and 100%; most values in the screen are far below 50% and negative numbers occur (in some assays of this library far below -100). This is an unselected part of the compounds tested. Two or more numbers in one place are separate tests of the same structure; such repeats can differ widely. A dash means the value is not listed here; it may have been measured.

PfKRS1: 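Lysine-tRNA ligase, Plasmodium falciparum 3D7 (UniProt Q8IDJ8). Enzyme assay of the cytosolic lysyl-tRNA synthetase in 384-well plates, read by luminescence. Tested at 30 µM. Higher reads as stronger inhibition, judged from the few compounds that gave an IC50. Of about 69,000 compounds tested this way, about 49 (0.071%) reached 50% or more in at least one test.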
MtTrpRS: 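Enzyme assay of tryptophanyl-tRNA synthetase; the read-out is not stated. Target: Tryptophan-tRNA ligase, Mycobacterium tuberculosis (UniProt P9WFT3). Compounds at 10 µM. Direction is not recorded; retested compounds ran higher, which suggests that high means inhibition. About 65,000 compounds were tested under these conditions; 0.098% (about 64) showed 50% or more at least once.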
Leishmania in macrophages: 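Cell assay of Leishmania donovani living inside macrophages; the read-out is not stated. Compounds at 30 µM. Direction is inferred from retests: higher values go with stronger inhibition. About 69,000 compounds were tested under these conditions; 1.5% (about 1,000) showed 50% or more at least once.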

- CCn1ncc2c1C(COC)N(C(=O)c1ccc3c(c1)OCO3)CC2 (stereo unspecified) | PfKRS1: 7.417%; MtTrpRS: -3.843%
- O=C(c1ccc(Cl)cc1)N1CCC2(C1)C(=O)Nc1ccccc12 (stereo unspecified) | PfKRS1: 6.933%; MtTrpRS: 0.2593%; Leishmania in macrophages: 27.07%
- Cc1cc(C(=O)N2CCS(=O)(=O)CC2)c(C)o1 | PfKRS1: 3.615%; MtTrpRS: 0.06473%; Leishmania in macrophages: -36.35%
- [H][C@@]12CCCO[C@]1([H])[C@H](N1CCOCC1)CN(C(=O)c1cc(C)[nH]c1C)C2 | Leishmania in macrophages: 12.61% & -4.961%
- CN(C)S(=O)(=O)NCC1(c2ccccc2Br)CC1 | PfKRS1: 3.072%; MtTrpRS: 4.321%; Leishmania in macrophages: -4.461%
- Cn1cc(NC(=O)c2cc[nH]n2)cc(Cl)c1=O | PfKRS1: 26.37%; MtTrpRS: 0.4656%; Leishmania in macrophages: 22.17%
- CCN(CC)Cc1cc(C(=O)N2CC[C@@]3(O)CCCC[C@H]3C2)c(C)o1 | PfKRS1: 8.343%; MtTrpRS: -5.027%
- CC/C(C)=C/CCN1CCN(C)C2(CCNC(=O)CC2)C1 (stereo unspecified) | PfKRS1: 2.667%; MtTrpRS: -3.488%; Leishmania in macrophages: 17.84%
- Cc1cnc(C(=O)N2Cc3ncn(C)c3C(COCC(C)C)C2)cn1.O=C(O)C(F)(F)F (stereo unspecified) | Leishmania in macrophages: 30.84%
- Cc1cc(N(C)C)nc(N2CCn3c(nnc3C3CC3)C2)n1 | PfKRS1: -8.099%; MtTrpRS: 1.067%; Leishmania in macrophages: 9.551%
- Cc1nc(C2CCNC2)nc2c1CCC(=O)N2CC(C)C (stereo unspecified) | PfKRS1: -0.8679%; MtTrpRS: -7.464%
- CC(C)Cc1nc(-c2ccnc(N3CCNCC3)n2)no1 | PfKRS1: 2.7%; MtTrpRS: -1.858%
- COc1ccc(C(=O)NS(=O)(=O)c2cccc(C#N)c2)cc1 | PfKRS1: -2.911%; MtTrpRS: 16.8%; Leishmania in macrophages: -2.046%
- Cc1nc(C)n(CC2CCCN(Cc3cc(C#N)ccc3F)C2)n1 (stereo unspecified) | PfKRS1: -1.614%; MtTrpRS: -7.456%; Leishmania in macrophages: 16.95%
- Cc1cccc(N2CCCC3(C2)CN(S(=O)(=O)C2CC2)CCO3)c1.O=C(O)C(F)(F)F (stereo unspecified) | Leishmania in macrophages: 15.79%
- CC(C)CCC(=O)Nc1ncn(CC(=O)N2CCCCCC2)n1 | PfKRS1: 2.774%; MtTrpRS: -1.122%; Leishmania in macrophages: 15.07%
- Cc1ccc(S(=O)(=O)N2CCC(c3n[nH]cc3C(=O)N(C)C)CC2)cc1 | PfKRS1: 2.513%; MtTrpRS: -4.823%; Leishmania in macrophages: -13.35%
- Cc1ccoc1C(=O)N1CCCC2(CCCN2S(C)(=O)=O)C1 (stereo unspecified) | PfKRS1: -0.5657%; MtTrpRS: 0.9346%; Leishmania in macrophages: -4.581%
- Cc1ccccc1Oc1ncccc1CNC1CCC1 | PfKRS1: 1.724%; MtTrpRS: 5.189%; Leishmania in macrophages: 1.212%
- O=C(NCC1CCS(=O)(=O)C1)N1CCN(c2cnccn2)CC1 (stereo unspecified) | PfKRS1: 1.595%; MtTrpRS: 4.073%; Leishmania in macrophages: 11.28%
- COCc1cccc(C(=O)N2C[C@H]3CC[C@@H]2CN(Cc2cscn2)C3)n1 | PfKRS1: -6.155%; MtTrpRS: -8.282%
- Cc1nc(NC(=O)NC2CC(=O)N(C(C)C)C2)nn1C(C)C (stereo unspecified) | PfKRS1: 3.411%; MtTrpRS: 1.729%; Leishmania in macrophages: 1.192%
- O=S(=O)(N1CCCC1)N1CC[C@H](c2ccccc2)[C@H]2NCCCC[C@H]21 | PfKRS1: -1.406%; MtTrpRS: -2.609%
- CN(CC(F)(F)F)C(=O)CNC(=O)Cc1ccc(O)cc1Cl | PfKRS1: 1.262%; MtTrpRS: 0.09551%; Leishmania in macrophages: 20.75%
- CC(C)N(C)Cc1cnc2n1CCN(S(=O)(=O)c1ccccc1)C2 | PfKRS1: -0.1518%; MtTrpRS: 18.49%
- O=C([C@@H]1CCO[C@@H]2CCN(CC3CC3)C[C@H]21)N1CCCCO1 | PfKRS1: 0.1816%; MtTrpRS: -1.245%
- COc1ncccc1NC(=O)NC1CCOc2ccccc21 (stereo unspecified) | PfKRS1: 2.342%; MtTrpRS: -0.09719%; Leishmania in macrophages: 23.83%
- CC(=O)Nc1nc2c(s1)C1(CCCC1)Nc1ccccc1S2 | PfKRS1: 4.875%; Leishmania in macrophages: 11.76% & -4.057%
- CCN1CC[C@]2(CN(C(=O)[C@H]3CCCO3)C[C@H]2c2ccccc2)C1=O | PfKRS1: 3.546%; MtTrpRS: -2.045%; Leishmania in macrophages: 7.165%
- Cc1nn(CCCNC(=O)C2CCN(S(C)(=O)=O)CC2)cc1Br | PfKRS1: 1.445%; MtTrpRS: -2.184%; Leishmania in macrophages: 0.05575%
- Cc1noc([C@H]2C[C@H]3OCC[C@H]3N(C3CCC3)C2)n1 | PfKRS1: 0.8146%; MtTrpRS: 0.2945%
- CCc1ccc(S(=O)(=O)N2CCCn3ncnc32)s1 | PfKRS1: 3.52%; MtTrpRS: -0.9032%; Leishmania in macrophages: 36.19%
- Cl.c1cn(-c2cncc(C3CCNCC3)n2)cn1 | Leishmania in macrophages: -1.158% & 10.83%
- O=C(c1ccc(CNC2CCSC2)cc1)N1CCCC1 (stereo unspecified) | PfKRS1: 6.714%; MtTrpRS: 0.7766%; Leishmania in macrophages: 11.49%

The last 4 entries again:

compound	PfKRS1	MtTrpRS	Leishmania in macrophages
Cc1noc([C@H]2C[C@H]3OCC[C@H]3N(C3CCC3)C2)n1	0.8146	0.2945	-
CCc1ccc(S(=O)(=O)N2CCCn3ncnc32)s1	3.52	-0.9032	36.19
Cl.c1cn(-c2cncc(C3CCNCC3)n2)cn1	-	-	-1.158 & 10.83
O=C(c1ccc(CNC2CCSC2)cc1)N1CCCC1 (stereo unspecified)	6.714	0.7766	11.49